# PubChem BioAssay AID504847 (National Center for Advancing Translational Sciences (NCATS), 2011)
# Sequences of proteins named here, by UniProt entry; tags and fusion partners are left off. A change or cut given only in a name is not applied to a line headed by its entry.
# UniProt P11473: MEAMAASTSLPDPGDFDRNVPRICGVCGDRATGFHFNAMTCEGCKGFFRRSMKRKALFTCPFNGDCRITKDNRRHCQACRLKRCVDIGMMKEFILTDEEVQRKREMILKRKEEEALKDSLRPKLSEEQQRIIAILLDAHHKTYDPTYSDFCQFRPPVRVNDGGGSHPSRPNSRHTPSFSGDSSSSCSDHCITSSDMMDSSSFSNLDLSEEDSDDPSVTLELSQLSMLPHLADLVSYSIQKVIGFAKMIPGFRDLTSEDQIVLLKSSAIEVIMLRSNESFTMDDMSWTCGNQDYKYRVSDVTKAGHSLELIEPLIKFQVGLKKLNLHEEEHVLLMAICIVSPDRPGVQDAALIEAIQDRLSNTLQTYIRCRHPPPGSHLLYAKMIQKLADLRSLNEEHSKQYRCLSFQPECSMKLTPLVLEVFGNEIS
# Out of some 400,000 compounds screened, about 3,700 (0.93%) were called active. Inconclusive results, whose numbers are uncertain, are shown with a selection of clear calls. Calls come from the whole dose curve; as a rule, active = well fitted inhibition curve with a large enough effect; inconclusive = small, poorly fitted or top-dose-only effect, or another doubt; inactive = no such curve, though single readings can be large or run the other way. Where the call is inconclusive, the potency comes from a doubtful curve fit.
# Biological target: Vitamin D3 receptor (Homo sapiens) (UniProt P11473)
# Test: Inhibitors of the vitamin D receptor (VDR): qHTS
# Conditions: VDR-SRC2-3 peptide fluorescence polarization, 2 h; max response, negative = inhibition: hits give low values
# Outline: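 Two reagent solutions held at 4 deg C in the dark were dispensed, compounds pinned at 23 nl, and the mixture incubated 2 h at room temperature. Read-out: fluorescence polarization of VDR–SRC2-3 peptide binding.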
# % is set by controls: 0 for no effect and ±100 for the full control effect; potency is the fitted concentration of half-maximal effect.
Structure (SMILES),Potency,"max response, negative = inhibition"
Nc1cc(N)nc(SCC(=O)NCc2ccc3c(c2)OCO3)n1,"inconclusive: 89.1 µM [inhibitor, partial curve, poor fit]",–
COc1ccc(/C=C2/C(=O)N(c3c(F)c(F)c(F)c(F)c3F)N=C2C)cc1,active: 50.1 µM,–
CC[C@@H](C)[C@H](CNC)NC[C@@H](Cc1cccc2ccccc12)NCCc1cccc(C(F)(F)F)c1,–,inactive: -25.5%
O=C(NCCN1C(=O)S/C(=C\c2ccc(OC(F)F)cc2)C1=O)c1cnccn1,"inconclusive: 70.8 µM [inhibitor, partial curve, poor fit]",–
O=C(O)c1cccc(N2C(=O)C3CC=C(Cl)CC3C2=O)c1 (stereo not drawn),"inconclusive: 100 µM [inhibitor, partial curve, poor fit]",–
Cn1cccc1C(=O)N1CCC[C@@]2(CCN(c3ccccc3)C2)C1,"inconclusive: 50.1 µM [inhibitor, partial curve]",–
NC(=O)Cn1nc([N+](=O)[O-])nc1Oc1ccccc1C(=O)N1CCOCC1,"inconclusive: 70.8 µM [inhibitor, partial curve, poor fit]",–
COCC(C)Nc1nc(C)c(C(C)=O)s1 (stereo not drawn),–,inactive: 6.7%
CC(C)CSc1nc2c(c(=O)[nH]c(=O)n2C)n1CC(O)COc1cccc2ccccc12 (stereo not drawn),"inconclusive: 89.1 µM [inhibitor, single point]",–
C[C@@H](NC(=O)[C@@H]1Cc2ccccc2CN1C(=O)OC(C)(C)C)C(=O)NC1CCCC1,"inconclusive: 39.8 µM [inhibitor, single point]",–
CCc1cc(C(=O)Nc2sc(C)c(CC)c2C#N)no1,active: 79.4 µM,–
O=C(N/N=C/C=C/c1ccco1)c1ccncc1,"inconclusive: 70.8 µM [inhibitor, partial curve, poor fit]",–
COc1cccc2c(C)nc(Nc3nc(CSc4nnc(C)s4)cc(=O)[nH]3)nc12,active: 79.4 µM,–
CC(=O)N1CCC2(CCCN(c3ccc(-c4ccccc4)cc3)C2)CC1,"inconclusive: 39.8 µM [inhibitor, partial curve]",–
CSCCC(NC(=O)COc1ccccc1)C(=O)OCCOc1ccc(F)cc1 (stereo not drawn),"inconclusive: 100 µM [inhibitor, single point]",–
c1ccc2c(c1)OCC(c1nnc3sc(-c4cnccn4)nn13)O2 (stereo not drawn),"inconclusive: 89.1 µM [inhibitor, single point]",–
O=C(NCc1cn2ccccc2n1)c1ccc2c(c1)OCO2,"inconclusive: 22.4 µM [inhibitor, partial curve, poor fit]",–
CCOC(=O)COn1c(-c2cccc(Cl)c2)nc2ccc([N+](=O)[O-])cc21,–,inactive: -9.51%

# An excerpt of these results, bar-delimited.
Structure (SMILES) | Potency | max response, negative = inhibition
COc1cccc2c(C)nc(Nc3nc(CSc4nnc(C)s4)cc(=O)[nH]3)nc12 | active: 79.4 µM | –
c1ccc2c(c1)OCC(c1nnc3sc(-c4cnccn4)nn13)O2 (stereo not drawn) | inconclusive: 89.1 µM [inhibitor, single point] | –
